Measurements: paper PMC3098871
The exact form of at least one protein or probe is not confirmed. At least one result comes from cells or an extract, where the contact may be indirect.

Protein sequences, listed by entry. Tags and fused reporters are not part of them. Residues count along the entry.
UniProt P84022, 2-425: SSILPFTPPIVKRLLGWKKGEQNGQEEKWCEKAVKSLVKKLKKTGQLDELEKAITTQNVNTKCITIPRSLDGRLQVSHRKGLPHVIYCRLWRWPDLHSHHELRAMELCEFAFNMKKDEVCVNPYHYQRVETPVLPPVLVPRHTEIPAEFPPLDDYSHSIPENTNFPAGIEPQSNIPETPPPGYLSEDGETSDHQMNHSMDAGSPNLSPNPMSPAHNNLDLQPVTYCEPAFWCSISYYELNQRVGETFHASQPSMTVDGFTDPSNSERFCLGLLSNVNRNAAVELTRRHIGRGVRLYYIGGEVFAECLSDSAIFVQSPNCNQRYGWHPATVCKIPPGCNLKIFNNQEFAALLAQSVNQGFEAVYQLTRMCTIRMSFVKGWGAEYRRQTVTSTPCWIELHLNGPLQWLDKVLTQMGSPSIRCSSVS

Molecular target: SMAD3 (A549 nuclear extract) (human (A549 cells)) (UniProt P84022)
Assay: EMSA supershift
Details: poly(dI-dC) 0.25 mg/mL, anti-SMAD3 supershift, complexes partially abolished by unlabeled probe (40 and 200 ng); 20% glycerol, 5 mM MgCl2, 2.5 mM EDTA, 25 mM DTT, 200 mM NaCl, 50 mM Tris-HCl pH 7.6, 0.25 mg/mL poly(dI-dC), 20 min at room temperature; 6% native PAGE; protein in an extract; label: 5'-Cy5 on strand 1

## GATTGCTGGTCGTTTGTTGTGGCT (double strand) [FOXA2 promoter probe (-42 to -19)]
  binding result: binds
